# Measured values: EP0624573A1, “Iodo vitamin D3 compounds and method for preparing same” (WISCONSIN ALUMNI RESEARCH FOUNDATION, priority 1993, dated 1994)
# Some of these results come from one statement about several compounds together.
# Target: T1, vitamin D receptor (Sus scrofa, UniProt A3RGC1)
# T1 construct: using the porcine extract prepared as described by Dame et al PNAS 82, 7825-7829 (1985); from tissue; host or cells: pig nuclear extract (PNE)
# T1 sequence (A3RGC1 1-427): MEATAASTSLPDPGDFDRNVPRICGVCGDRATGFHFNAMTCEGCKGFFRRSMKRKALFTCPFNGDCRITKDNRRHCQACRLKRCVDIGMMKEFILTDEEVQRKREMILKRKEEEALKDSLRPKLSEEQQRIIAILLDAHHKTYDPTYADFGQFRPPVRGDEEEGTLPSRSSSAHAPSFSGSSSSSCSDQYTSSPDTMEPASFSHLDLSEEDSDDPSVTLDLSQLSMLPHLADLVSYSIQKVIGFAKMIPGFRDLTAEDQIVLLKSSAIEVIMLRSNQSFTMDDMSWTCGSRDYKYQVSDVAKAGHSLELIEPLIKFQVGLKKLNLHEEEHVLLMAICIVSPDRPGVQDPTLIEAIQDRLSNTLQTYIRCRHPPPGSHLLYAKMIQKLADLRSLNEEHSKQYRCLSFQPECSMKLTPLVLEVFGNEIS
# Assay: Competitive receptor binding with pig nuclear extract (PNE)
# Conditions: in words, pig nuclear extract (Fig. 2)
smiles,measurement,value
"C=C1/C(=C\C=C2/CCC[C@]3(C)[C@@H]([C@H](C)[C@@H](I)CCC(C)(C)O)CC[C@@H]23)C[C@@H](O)C[C@@H]1O [compound 9, (22S)-iodo-1α,25-dihydroxyvitamin D₃]",competitive binding to the vitamin D receptor,potential for high in vivo biological activity
"C=C1/C(=C\C=C2/CCC[C@]3(C)[C@@H]([C@H](C)[C@H](I)CCC(C)(C)O)CC[C@@H]23)C[C@@H](O)C[C@@H]1O [compound 11, (22R)-iodo-1α,25-dihydroxyvitamin D₃]",competitive binding to the vitamin D receptor,potential for high in vivo biological activity
